Measured values published in paper PMC3103425.
Results are given in words; binding and its absence hold for the method and conditions named. For some of these results: Binding calls can cover weak binding; strength is not graded here.

Amino acid sequences for entries named in this document (tags omitted). A change or cut given only in a name is not applied to a line headed by its entry.
UniProt Q60EN8: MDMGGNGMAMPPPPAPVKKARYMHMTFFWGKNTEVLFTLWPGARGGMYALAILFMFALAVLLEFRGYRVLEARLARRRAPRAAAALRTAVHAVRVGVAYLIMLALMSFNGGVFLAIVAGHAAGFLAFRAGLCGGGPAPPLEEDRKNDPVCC
UniProt F5BCS3: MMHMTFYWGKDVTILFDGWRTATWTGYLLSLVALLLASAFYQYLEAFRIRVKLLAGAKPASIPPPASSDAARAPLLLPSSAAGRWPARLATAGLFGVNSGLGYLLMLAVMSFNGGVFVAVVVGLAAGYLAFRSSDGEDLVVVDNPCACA
UniProt Q94EE4: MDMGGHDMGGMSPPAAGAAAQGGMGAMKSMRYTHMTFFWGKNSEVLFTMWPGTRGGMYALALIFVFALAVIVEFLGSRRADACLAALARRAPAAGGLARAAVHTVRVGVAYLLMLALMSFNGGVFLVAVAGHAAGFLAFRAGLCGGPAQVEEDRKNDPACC

Assays:
Assay in all cases: two-hybrid; split-ubiquitin membrane yeast two-hybrid (MoBiTec kit); Cub and NubG fusion constructs co-transformed into yeast strain NMY51; read by growth on medium lacking His or Ade and by beta-galactosidase activity
[1] = biological target: rice COPT2 (rice (Oryza sativa ssp. japonica)) (UniProt Q5ZD08)
[2] = biological target: rice COPT3 (rice (Oryza sativa ssp. japonica)) (UniProt Q10KT6)
[3] = biological target: rice COPT4 (rice (Oryza sativa ssp. japonica)) (UniProt Q7XTF8)
[4] = biological target: rice COPT5 (rice (Oryza sativa ssp. japonica)) (UniProt Q60EN8)
[5] = biological target: rice COPT7 (rice (Oryza sativa ssp. japonica)) (UniProt F5BCS3)
Alg5 = Alg5 (UniProt P40350)

In the case of rice COPT1 (from UniProt Q94EE4), the binding [1] is reported as “no binding”, the binding [2] is reported as “no binding” and the binding [3] is reported as “no binding”. The binding [4] was “binds” and the binding [5] was “no binding”.

In the case of rice COPT2 (from UniProt Q5ZD08), the binding (Alg5) is reported as “binds”, the binding [2] is reported as “no binding” and the binding [3] is reported as “no binding”. The binding [4] was “no binding” and the binding [5] was “no binding”.

For rice COPT3 (from UniProt Q10KT6), the binding (Alg5) was “binds”, the binding [3] was “no binding” and the binding [4] was “no binding”. For the same substance, the binding [5] was “no binding”.

With rice COPT4 (from UniProt Q7XTF8) the binding (Alg5) was “binds”, the binding [4] was “no binding” and the binding [5] was “no binding”.

In the case of rice COPT5 (from UniProt Q60EN8), the binding [5] is reported as “no binding”.

rice COPT7 (from UniProt F5BCS3) was tested, and the binding (Alg5) was “binds”.
